The target in this assay is Focal adhesion kinase (FAK), wild-type, re-expressed in FAK-deficient SCC cells (UniProt P34152). Put plainly: co-IP; FAK immunoprecipitation from SCC FAK-WT cell nuclear extracts, TAF9 detected.

By UniProt entry, the sequences of proteins in these tests, tags left out.
UniProt P34152: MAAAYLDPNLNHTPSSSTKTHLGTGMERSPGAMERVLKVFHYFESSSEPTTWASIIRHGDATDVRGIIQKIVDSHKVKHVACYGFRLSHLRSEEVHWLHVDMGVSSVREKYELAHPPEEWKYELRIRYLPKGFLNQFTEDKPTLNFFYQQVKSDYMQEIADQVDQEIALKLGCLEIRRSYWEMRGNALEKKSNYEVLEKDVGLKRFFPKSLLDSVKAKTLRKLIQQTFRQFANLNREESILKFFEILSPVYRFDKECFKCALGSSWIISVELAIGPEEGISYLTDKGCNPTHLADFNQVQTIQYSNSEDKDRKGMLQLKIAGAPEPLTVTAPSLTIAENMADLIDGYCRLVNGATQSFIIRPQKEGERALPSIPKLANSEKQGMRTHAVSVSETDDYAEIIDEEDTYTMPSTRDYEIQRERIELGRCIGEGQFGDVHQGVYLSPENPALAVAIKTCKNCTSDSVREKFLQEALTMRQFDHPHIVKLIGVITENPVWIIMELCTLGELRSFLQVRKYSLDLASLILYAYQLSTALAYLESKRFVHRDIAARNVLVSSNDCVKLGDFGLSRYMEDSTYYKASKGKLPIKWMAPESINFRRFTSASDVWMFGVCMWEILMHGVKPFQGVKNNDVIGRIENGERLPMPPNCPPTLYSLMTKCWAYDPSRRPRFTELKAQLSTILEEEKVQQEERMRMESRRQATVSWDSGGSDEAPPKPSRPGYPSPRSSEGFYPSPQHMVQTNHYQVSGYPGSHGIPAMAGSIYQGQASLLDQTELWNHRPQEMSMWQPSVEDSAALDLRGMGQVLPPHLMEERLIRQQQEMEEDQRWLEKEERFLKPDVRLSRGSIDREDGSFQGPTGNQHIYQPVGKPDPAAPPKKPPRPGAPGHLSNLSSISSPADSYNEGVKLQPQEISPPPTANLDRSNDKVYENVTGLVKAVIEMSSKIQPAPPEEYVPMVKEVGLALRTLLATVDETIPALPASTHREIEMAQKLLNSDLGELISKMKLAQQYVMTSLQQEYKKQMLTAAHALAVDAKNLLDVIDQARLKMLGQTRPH

These are yes or no findings as the source states them, for the method shown. In cells and extracts the contact can be indirect. Some results given as binding are weak or reduced against the parent protein; the word gives no strength.

B1: TAF9, TBP-associated factor, core component of the TFIID complex (protein, UniProt Q8VI33 1-264)
chain: MESGKMASPKSMPKDAQMMAQILKDMGITEYEPRVINQMLEFAFRYVTTILDDAKIYSSHAKKATVDADDVRLAIQCRADQSFTSPPPRDFLLDIARQRNQTPLPLIKPYSGPRLPPDRYCLTAPNYRLKSLQKKAPAPAGRITVPRLSVGSVSSRPSTPTLGTPTPQTMSVSTKVGTPMSLTGQRFTVQMPASQSPAVKASIPATSTVQNVLINPSLIGSKNILITTNMVSQNTAESANALKRKREDDDDDDDDDDDDDYDNM
Turning to B1, the binding entry was “binds”.

The values are drawn from publication PMC4597190.
